No constants are given. Whether binding was seen depends on the method and setting. In cells and extracts the contact can be indirect. Some results given as binding are weak or reduced against the parent protein; the word gives no strength.
Tests used:
Assay in all cases: co-IP
[1] = molecular target: myc-tagged NOTCH2 (human) (UniProt Q04721)
[2] = molecular target: HA-tagged NOTCH2NL^L,T197I (long NOTCH2NL with Thr→Ile substitution) (human) (UniProt P0DPK3)
[3] = molecular target: HA-tagged NOTCH2NL^Sh (short NOTCH2NL) (human) (UniProt Q7Z3S9)

Sequences of proteins named here, by UniProt entry; tags and fusion partners are left off. A change or cut given only in a name is not applied to a line headed by its entry. Residues count along the entry.
UniProt Q04721, 26-2471: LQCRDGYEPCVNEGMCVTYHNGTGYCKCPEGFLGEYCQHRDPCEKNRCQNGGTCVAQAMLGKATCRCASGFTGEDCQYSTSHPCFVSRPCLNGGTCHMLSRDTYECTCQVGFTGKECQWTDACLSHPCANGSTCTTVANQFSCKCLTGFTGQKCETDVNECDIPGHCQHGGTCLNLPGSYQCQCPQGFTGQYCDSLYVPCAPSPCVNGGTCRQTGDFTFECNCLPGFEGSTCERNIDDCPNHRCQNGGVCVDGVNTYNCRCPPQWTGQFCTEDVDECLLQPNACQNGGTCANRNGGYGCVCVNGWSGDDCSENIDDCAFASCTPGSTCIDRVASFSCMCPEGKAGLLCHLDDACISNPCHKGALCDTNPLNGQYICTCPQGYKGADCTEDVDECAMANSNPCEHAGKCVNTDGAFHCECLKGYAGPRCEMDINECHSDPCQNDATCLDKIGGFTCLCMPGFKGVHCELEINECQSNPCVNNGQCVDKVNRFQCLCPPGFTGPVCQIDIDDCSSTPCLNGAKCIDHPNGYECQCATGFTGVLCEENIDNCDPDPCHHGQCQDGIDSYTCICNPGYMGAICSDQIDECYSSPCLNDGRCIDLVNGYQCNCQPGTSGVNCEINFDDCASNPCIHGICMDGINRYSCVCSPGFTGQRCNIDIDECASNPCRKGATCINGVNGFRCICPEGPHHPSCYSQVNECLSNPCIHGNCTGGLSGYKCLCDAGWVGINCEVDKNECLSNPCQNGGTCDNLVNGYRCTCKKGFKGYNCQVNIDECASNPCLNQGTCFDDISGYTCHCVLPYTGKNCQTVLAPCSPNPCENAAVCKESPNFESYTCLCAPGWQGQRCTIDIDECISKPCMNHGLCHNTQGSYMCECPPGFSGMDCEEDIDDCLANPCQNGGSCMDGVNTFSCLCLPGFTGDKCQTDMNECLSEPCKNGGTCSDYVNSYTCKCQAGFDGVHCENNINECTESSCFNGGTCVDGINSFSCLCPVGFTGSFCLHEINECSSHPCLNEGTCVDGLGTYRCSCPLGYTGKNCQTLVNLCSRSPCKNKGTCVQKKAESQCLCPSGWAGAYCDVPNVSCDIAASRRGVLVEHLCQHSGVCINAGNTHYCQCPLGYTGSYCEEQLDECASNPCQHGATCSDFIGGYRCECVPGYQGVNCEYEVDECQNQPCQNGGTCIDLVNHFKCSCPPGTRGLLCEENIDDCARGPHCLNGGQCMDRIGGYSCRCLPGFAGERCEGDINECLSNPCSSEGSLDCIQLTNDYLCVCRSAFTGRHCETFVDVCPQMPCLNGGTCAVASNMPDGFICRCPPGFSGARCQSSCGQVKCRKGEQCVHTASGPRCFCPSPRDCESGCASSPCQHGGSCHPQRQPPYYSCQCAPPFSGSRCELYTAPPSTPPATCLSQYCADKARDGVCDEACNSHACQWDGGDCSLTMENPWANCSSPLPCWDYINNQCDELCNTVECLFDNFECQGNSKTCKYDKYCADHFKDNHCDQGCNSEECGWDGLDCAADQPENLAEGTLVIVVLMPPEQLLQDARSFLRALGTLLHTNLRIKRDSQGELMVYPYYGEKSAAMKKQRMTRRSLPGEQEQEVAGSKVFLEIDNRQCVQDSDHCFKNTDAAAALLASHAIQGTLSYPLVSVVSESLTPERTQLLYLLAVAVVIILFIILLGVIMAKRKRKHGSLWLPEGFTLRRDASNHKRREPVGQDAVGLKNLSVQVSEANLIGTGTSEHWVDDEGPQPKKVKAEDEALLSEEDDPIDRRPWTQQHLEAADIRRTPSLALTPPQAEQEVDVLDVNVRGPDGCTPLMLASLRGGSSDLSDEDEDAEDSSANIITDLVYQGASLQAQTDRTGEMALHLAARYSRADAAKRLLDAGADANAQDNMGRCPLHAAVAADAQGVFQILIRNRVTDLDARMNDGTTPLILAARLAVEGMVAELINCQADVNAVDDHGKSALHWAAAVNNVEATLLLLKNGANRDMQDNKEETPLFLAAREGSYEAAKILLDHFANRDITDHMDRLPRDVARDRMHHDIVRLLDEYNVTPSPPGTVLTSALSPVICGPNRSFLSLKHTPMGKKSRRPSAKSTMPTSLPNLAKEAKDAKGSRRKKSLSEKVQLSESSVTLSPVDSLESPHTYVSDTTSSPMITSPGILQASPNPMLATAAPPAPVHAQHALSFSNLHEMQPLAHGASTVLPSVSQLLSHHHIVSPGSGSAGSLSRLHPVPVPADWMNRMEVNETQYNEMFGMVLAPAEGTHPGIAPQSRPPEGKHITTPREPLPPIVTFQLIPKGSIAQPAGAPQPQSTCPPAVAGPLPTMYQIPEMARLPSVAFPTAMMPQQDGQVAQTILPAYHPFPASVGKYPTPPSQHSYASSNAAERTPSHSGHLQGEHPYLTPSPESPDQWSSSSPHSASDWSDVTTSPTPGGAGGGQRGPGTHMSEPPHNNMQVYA
UniProt P0DPK3, 26-275, stated change not applied: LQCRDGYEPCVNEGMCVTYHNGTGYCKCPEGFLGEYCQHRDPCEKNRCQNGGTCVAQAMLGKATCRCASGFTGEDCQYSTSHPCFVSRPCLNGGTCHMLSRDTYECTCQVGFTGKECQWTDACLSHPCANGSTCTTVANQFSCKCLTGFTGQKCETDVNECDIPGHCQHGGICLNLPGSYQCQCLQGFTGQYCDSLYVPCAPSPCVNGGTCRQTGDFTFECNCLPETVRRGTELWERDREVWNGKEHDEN
UniProt Q7Z3S9, whole entry: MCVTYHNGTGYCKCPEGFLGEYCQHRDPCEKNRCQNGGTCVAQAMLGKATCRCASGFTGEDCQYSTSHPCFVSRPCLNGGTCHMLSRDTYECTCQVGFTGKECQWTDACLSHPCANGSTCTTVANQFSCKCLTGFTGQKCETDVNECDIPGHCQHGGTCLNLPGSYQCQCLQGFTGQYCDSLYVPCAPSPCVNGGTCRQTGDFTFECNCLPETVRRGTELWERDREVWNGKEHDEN

binding [1]	binding [2]	binding [3]	Substance
binds			HA-tagged NOTCH2NL^L,T197I (long NOTCH2NL with Thr→Ile substitution) (from UniProt P0DPK3 26-275)
binds			HA-tagged NOTCH2NL^Sh (short NOTCH2NL) (from UniProt Q7Z3S9 1-236)
	binds	binds	myc-tagged NOTCH2 (from UniProt Q04721 26-2471) (receptor)

Reference: publication doi:10.1101/221226
